What was measured:
[1] = Serum concentration of nine essential minerals (GC-MS); type: in vivo, C57BL/6 mice
[2] = Serum concentrations of calciotropic hormones (vitamin D and PTH); type: in vivo, C57BL/6 mice

With `O=C(O)c1ccccn1` [PA, pyridine-2-carboxylic acid] the “Serum Aluminium” value ([1]; OVX, PA250) was 2 ± 1.4 µmol/L, the “Serum Calcium” value ([1]; OVX, PA250) was 9 ± 0.25 mg/dL and the “Serum Carbon” value ([1]; OVX, PA250) was 30 ± 0.5 mEq/L. For the same compound, the “Serum Cobalt” value ([1]; OVX, PA250) was 2 ± 0.1 µg/L, the “Serum Copper” value ([1]; OVX, PA250) was 647 ± 36 µg/L and the “Serum Iron” value ([1]; OVX, PA250) was 170 ± 30 µg/dL. For the same compound, the “Serum Magnesium” value ([1]; OVX, PA250) was 2.6 ± 0.35 mg/dL, the “Serum Manganese” value ([1]; OVX, PA250) was 3 ± 0.4 µg/L and the “Serum Zinc” value ([1]; OVX, PA250) was 72 ± 6 µg/dL. For the same compound, the “Serum Aluminium” value ([1]; OVX, PA500) was 2.5 ± 0.2 µmol/L, the “Serum Calcium” value ([1]; OVX, PA500) was 8.9 ± 0.27 mg/dL and the “Serum Carbon” value ([1]; OVX, PA500) was 29 ± 1.2 mEq/L. For the same compound, the “Serum Cobalt” value ([1]; OVX, PA500) was 2 ± 0.2 µg/L, the “Serum Copper” value ([1]; OVX, PA500) was 631 ± 10 µg/L and the “Serum Iron” value ([1]; OVX, PA500) was 200 ± 70 µg/dL. For the same compound, the “Serum Magnesium” value ([1]; OVX, PA500) was 2.4 ± 0.17 mg/dL, the “Serum Manganese” value ([1]; OVX, PA500) was 5 ± 2.5 µg/L and the “Serum Zinc” value ([1]; OVX, PA500) was 69 ± 7.7 µg/dL. The “Serum Aluminium” value ([1]; OVX, PA1000) was 4.5 ± 3 µmol/L, the “Serum Calcium” value ([1]; OVX, PA1000) was 8.7 ± 0.07 mg/dL and the “Serum Carbon” value ([1]; OVX, PA1000) was 28 ± 1 mEq/L. For the same compound, the “Serum Cobalt” value ([1]; OVX, PA1000) was 1.9 ± 0.1 µg/L, the “Serum Copper” value ([1]; OVX, PA1000) was 614 ± 31 µg/L and the “Serum Iron” value ([1]; OVX, PA1000) was 180 ± 20 µg/dL. The “Serum Magnesium” value ([1]; OVX, PA1000) was 2.6 ± 0.2 mg/dL, the “Serum Manganese” value ([1]; OVX, PA1000) was 3 ± 0.6 µg/L and the “Serum Zinc” value ([1]; OVX, PA1000) was 73 ± 2.4 µg/dL. The “Serum Aluminium” value ([1]; Sham, PA250) was 7 ± 3 µmol/L, the “Serum Calcium” value ([1]; Sham, PA250) was 9.1 ± 0.05 mg/dL and the “Serum Carbon” value ([1]; Sham, PA250) was 29 ± 0.9 mEq/L. The “Serum Cobalt” value ([1]; Sham, PA250) was 2.4 ± 6.4 µg/L, the “Serum Copper” value ([1]; Sham, PA250) was 643 ± 52 µg/L and the “Serum Iron” value ([1]; Sham, PA250) was 240 ± 70 µg/dL. The “Serum Magnesium” value ([1]; Sham, PA250) was 2.8 ± 0.4 mg/dL, the “Serum Manganese” value ([1]; Sham, PA250) was 4 ± 1.6 µg/L and the “Serum Zinc” value ([1]; Sham, PA250) was 63 ± 5.2 µg/dL. The “Serum Aluminium” value ([1]; Sham, PA500) was 4 ± 1 µmol/L, the “Serum Calcium” value ([1]; Sham, PA500) was 8.9 ± 0.28 mg/dL and the “Serum Carbon” value ([1]; Sham, PA500) was 28 ± 0.2 mEq/L. The “Serum Cobalt” value ([1]; Sham, PA500) was 2.1 ± 0.2 µg/L, the “Serum Copper” value ([1]; Sham, PA500) was 576 ± 69 µg/L and the “Serum Iron” value ([1]; Sham, PA500) was 200 ± 80 µg/dL. For the same compound, the “Serum Magnesium” value ([1]; Sham, PA500) was 2.8 ± 0.25 mg/dL, the “Serum Manganese” value ([1]; Sham, PA500) was 3 ± 0.5 µg/L and the “Serum Zinc” value ([1]; Sham, PA500) was 62 ± 7.4 µg/dL. For the same compound, the “Serum Aluminium” value ([1]; Sham, PA1000) was 5 ± 2 µmol/L, the “Serum Calcium” value ([1]; Sham, PA1000) was 9.1 ± 0.24 mg/dL and the “Serum Carbon” value ([1]; Sham, PA1000) was 31 ± 1.2 mEq/L. For the same compound, the “Serum Cobalt” value ([1]; Sham, PA1000) was 2.2 ± 0.1 µg/L, the “Serum Copper” value ([1]; Sham, PA1000) was 703 ± 56 µg/L and the “Serum Iron” value ([1]; Sham, PA1000) was 200 ± 40 µg/dL. The “Serum Magnesium” value ([1]; Sham, PA1000) was 2.8 ± 0.22 mg/dL, the “Serum Manganese” value ([1]; Sham, PA1000) was 4 ± 0.9 µg/L and the “Serum Zinc” value ([1]; Sham, PA1000) was 69 ± 9.3 µg/dL. The “PTH (serum)” value ([2]; OVX, PA250) was 35 ± 8 pg/mL, the “Vitamin D (serum)” value ([2]; OVX, PA250) was 52 ± 16 nmol/L and the “PTH (serum)” value ([2]; OVX, PA500) was 35 ± 6 pg/mL. The “Vitamin D (serum)” value ([2]; OVX, PA500) was 56 ± 4 nmol/L, the “PTH (serum)” value ([2]; OVX, PA1000) was 40 ± 2 pg/mL and the “Vitamin D (serum)” value ([2]; OVX, PA1000) was 52 ± 13 nmol/L. The “PTH (serum)” value ([2]; Sham, PA250) was 40 ± 3 pg/mL, the “Vitamin D (serum)” value ([2]; Sham, PA250) was 54 ± 12 nmol/L and the “PTH (serum)” value ([2]; Sham, PA500) was 35 ± 5 pg/mL. The “Vitamin D (serum)” value ([2]; Sham, PA500) was 52 ± 14 nmol/L, the “PTH (serum)” value ([2]; Sham, PA1000) was 36 ± 5 pg/mL and the “Vitamin D (serum)” value ([2]; Sham, PA1000) was 53 ± 13 nmol/L.

Source: patent US9642897B2, “Treatment of bone diseases” (THE UNIVERSITY OF SYDNEY, priority 2011, dated 2017)
